These are yes or no findings as the source states them, for the method shown. Binding seen in cells or lysates may run through a third protein. A result given as binding can be weak or reduced; the word gives no strength.
Biological target: T1, CD99 (human (endogenous in LAP-35)) (UniProt P14209)
T1 sequence: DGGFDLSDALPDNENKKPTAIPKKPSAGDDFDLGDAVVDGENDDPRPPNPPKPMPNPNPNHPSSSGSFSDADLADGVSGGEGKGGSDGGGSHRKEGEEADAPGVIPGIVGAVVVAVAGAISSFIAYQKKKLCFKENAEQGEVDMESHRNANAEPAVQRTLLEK
Assay: co-IP; endogenous IGF-1R, RAS and CD99 in LAP-35 cells, before and after treatment with 0662mAb; details only in Supplementary Materials and Methods

Substance	binding
RAS (human (endogenous in LAP-35))	binds
insulin-like growth factor receptor 1 (IGF-1R) (human (endogenous in LAP-35))	binds

From publication PMC5346761
